Assay [1] has as its target T1, Endogenous inversin in mouse kidney (mouse) (UniProt O89019).
T1 sequence (looked up): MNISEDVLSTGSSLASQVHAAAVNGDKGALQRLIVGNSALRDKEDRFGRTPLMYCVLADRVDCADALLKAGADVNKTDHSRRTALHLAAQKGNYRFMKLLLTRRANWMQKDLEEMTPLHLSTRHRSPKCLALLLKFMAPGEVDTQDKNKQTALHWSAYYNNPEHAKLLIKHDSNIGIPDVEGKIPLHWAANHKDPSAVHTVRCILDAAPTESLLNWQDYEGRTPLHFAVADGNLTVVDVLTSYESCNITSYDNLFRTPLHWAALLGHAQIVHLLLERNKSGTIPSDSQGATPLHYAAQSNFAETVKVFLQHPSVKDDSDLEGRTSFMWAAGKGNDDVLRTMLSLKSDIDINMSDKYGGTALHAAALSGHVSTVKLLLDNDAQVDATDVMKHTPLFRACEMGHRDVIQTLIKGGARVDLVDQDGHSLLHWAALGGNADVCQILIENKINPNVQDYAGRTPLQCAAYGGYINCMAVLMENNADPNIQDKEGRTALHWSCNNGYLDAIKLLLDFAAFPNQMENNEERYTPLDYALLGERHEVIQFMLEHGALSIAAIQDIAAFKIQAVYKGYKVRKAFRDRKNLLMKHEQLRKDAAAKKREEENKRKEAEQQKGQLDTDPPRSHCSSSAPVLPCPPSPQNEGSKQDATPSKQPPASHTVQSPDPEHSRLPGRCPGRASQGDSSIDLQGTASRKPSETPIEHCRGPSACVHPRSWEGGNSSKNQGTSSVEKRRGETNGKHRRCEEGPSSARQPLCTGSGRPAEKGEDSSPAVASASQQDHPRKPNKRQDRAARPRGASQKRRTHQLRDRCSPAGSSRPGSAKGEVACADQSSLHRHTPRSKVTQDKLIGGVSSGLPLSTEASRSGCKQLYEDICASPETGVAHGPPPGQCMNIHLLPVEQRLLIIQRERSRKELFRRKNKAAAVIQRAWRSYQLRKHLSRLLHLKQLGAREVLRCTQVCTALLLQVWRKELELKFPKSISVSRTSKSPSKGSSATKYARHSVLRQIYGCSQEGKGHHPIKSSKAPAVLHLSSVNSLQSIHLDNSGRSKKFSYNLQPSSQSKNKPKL
The assay is described as follows: co-immunoprecipitation from mouse tissue (figure legend).

Assay [2] concerns the target T1, Endogenous inversin in mouse kidney (mouse). Kind of assay: co-immunoprecipitation from mouse kidney tissue lysate with anti-nephrocystin antisera.

Results are given in words; binding and its absence hold for the method and conditions named. In cells and extracts the contact can be indirect. Some entries that bind do so weakly or less than the wild type.

Experimental findings from patent US20040096922A1 are described below.

B1: Endogenous nephrocystin in mouse kidney (protein, UniProt Q9QY53 1-687, looked up)
chain: MLARRPRDPLQALRRRGQELKLQVDSLVTESQLTGALEPSKRREIYQRCIQLKQAVDENKNTLQKLNKADEAAPVGNYEQRKEEEHSLLEKLACQLQELAVSISRKDALKVEAHSDKEEDDTTEDDEEETGGEEEESEGDGEGKQEQASPKQAETETVTYIALGDFAAQQTGDLTFKKGDVLHIIEKKPDGWWLAKDAEGVEGLIPRTYLEPYNKEDKLESSEGSEEGGEEDGEEDVEVVDETADGAQVKQRTDSHWSAVRKAISEQINTVDVLATMGAIPAGFRPSTLSQLLDEAGNQFRASYFLQPELTTSQLAFRDLTWDAKAGTIMSRPSRVSLILTLWSCKMIPLPGTSIQVLSRHIRLCLFDGSKVLSNIHTVRAVWQPKKPKTWTFSPQVTGILPCLLDGDCFIRSNSSTPDLGILFELGISYIRNSTGERGELSCGWVFLKLFDASGVPIPAKTYELFLNGGTPYEKGVEVDPSVSRRAQGSVFRQMISVRRQPQLLVKLRSLNRRSRAMLSLLPETLVGSMCSAHLLIFYRQILGDVLLRDRTNLQSADLISHPVLATFPLLLEQPDVMDALRSSWSEKESTLKRAEKRDKELLKAEFLLVYHDCVLPLLHSTLLPPFRWAEEETEAARWKAIADFLKQSRENEGSLKALLSPDGVHKPFDLSEQTFDFLGEIRKNSG
On to B1, for which the binding result in assay [1] and in assay [2] was “binds” throughout.
